Experimental data taken from patent publication US6576624B1, “Use of dopamine receptor antagonists in palliative tumor therapy” (Zentaris AG, priority 1996, dated 2003).
At least one compound was matched to its structure with a doubt left.

How the values were obtained:
[1] = tested on: DMBA-induced breast tumor; assay: Anti-tumor action on DMBA-induced breast tumor of rats; assay type: in vivo, rat; conditions: rats with DMBA-induced breast tumor; FIGS. 11-12

SMILES | Effect on body weight development of animals treated with octadecyl(1,1-dimethylpiperidinio-4-yl)phosphate (simultaneous administration with D-21266, normal rats, FIGS. 7 and 8, Table 2) | Body weight development, alone and in combination with octadecyl(1,1-dimethylpiperidinio-4-yl)phosphate (tumor-bearing rats, FIGS. 9-10) | Effect on anti-tumor action of octadecyl(1,1-dimethylpiperidinio-4-yl)phosphate [1] | Effect on the loss of weight caused by miltefosine (simultaneous administration with miltefosine, healthy and tumor-bearing rats, domperidone or pimozide 5×0.1 mg/kg i.p.)
O=c1[nH]c2ccccc2n1C1CCN(CCCC(c2ccc(F)cc2)c2ccc(F)cc2)CC1 [Pimozide, pimozide] | more than compensated | increase the body weight development | without affecting the anti-tumor action | –
CN1CCC(=C2c3ccccc3C=Cc3ccccc32)CC1 [Cyproheptadine, cyproheptadine] | – | – | – | does not lead to any positive effect
